Binding signal data for 42 sequences are collected here from article PMC7819943, “Rice protein-binding microarrays: a tool to detect cis-acting elements near promoter regions in rice”.

Sequences of proteins named here, by UniProt entry; tags and fusion partners are left off.
UniProt Q0JBA9, entry or part of it: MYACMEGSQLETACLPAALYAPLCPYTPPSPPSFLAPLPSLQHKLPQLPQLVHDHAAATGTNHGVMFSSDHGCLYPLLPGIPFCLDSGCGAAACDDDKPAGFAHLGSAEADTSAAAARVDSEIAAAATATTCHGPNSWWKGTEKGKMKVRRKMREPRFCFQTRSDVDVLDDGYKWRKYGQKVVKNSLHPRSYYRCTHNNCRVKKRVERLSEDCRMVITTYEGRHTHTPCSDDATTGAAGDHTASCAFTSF

The other results are listed elsewhere or left out.

The target in the experiment is OsWRKY34 (Oryza sativa, UniProt Q0JBA9 1-250). Put plainly: protein-binding microarray (RPBM); PBS, 2% BSA, 51.3 ng/ul salmon testes DNA, 50 uM zinc acetate, 200 nM TF, 25 C, 1 h; high values mean tight binding. To be noted: protein: recombinant; tags: N-terminal polyhistidine and DsRed monomer fusion (pET32a); label: CyDye5-dUTP incorporated in the synthesized complementary strand; 3' TTTTT single-stranded linker to array surface; dsDNA, one strand shown. Put shortly: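 Per-feature fluorescence intensity (arbitrary units), read on an Axon 4000B scanner, is the binding signal. Transcription factors carrying an N-terminal polyhistidine tag and DsRed fusion were expressed in E. coli BL21-CodonPlus and purified on Ni–NTA. A custom Agilent array, made double-stranded by primer extension with Cy5-dUTP and blocked with 2% BSA, was incubated with 200 nM protein in PBS, 2% BSA, salmon testes DNA and 50 µM zinc acetate at 25 °C for 1 h and then washed.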
For the sequence “CCGACTGCCGCAAGCAATCTCCTGACCAACACTACCACATCGGAGTCACCTAGTGCAG”, the binding signal was 8140 fluorescence intensity (a.u.).

Take “TCAACCTAGGCACATCTGGCCATGCACGTCTCCGGCACTCCGGAGTCACCTAGTGCAG”: the binding signal is 8510 fluorescence intensity (a.u.).

As for “TTTCTTTCTGGTTTCGTCACTGATGTTAAATTATGTCTTTCGGAGTCACCTAGTGCAG”, the binding signal was 8270 fluorescence intensity (a.u.).

Consider “GCCGCGACGTGACGTGACGTCACGCATTTGTCACTTTCTCCGGAGTCACCTAGTGCAG”, for which the binding signal was 8980 fluorescence intensity (a.u.).

As for “ACGAAGCCCTCGCCGCCGCTGCGATGTAACGGTTTCCCTCCGGAGTCACCTAGTGCAG”, the binding signal is 8050 fluorescence intensity (a.u.).

Regarding “TATTTCGATTTGATGGCTTCCTGTTGCTTTTCCTGTTAATCGGAGTCACCTAGTGCAG”, the binding signal is 14000 fluorescence intensity (a.u.).

In the case of “GTTCATTGATGAGTGTGTAACTATACTAGGTTGCTTGCTTCGGAGTCACCTAGTGCAG”, the binding signal is 8310 fluorescence intensity (a.u.).

For “TCATCTCCTATTTTGCAATTTTTGTAGTTATTTTCAGGTACGGAGTCACCTAGTGCAG”, the binding signal was 10300 fluorescence intensity (a.u.).

Turning to “GTCGTTGTTGCTAGCTTGCCACGCCATGCTGCTCGCTTCTCGGAGTCACCTAGTGCAG”, the binding signal is 8390 fluorescence intensity (a.u.).

For “TCATCGCCACCATCCACGACGCCTTCGCTGCACCCGCCATCGGAGTCACCTAGTGCAG”, the binding signal is 9280 fluorescence intensity (a.u.).

Regarding “GGAATTAGACGACCTTTTCTACATGCATATAGTACTTGACCGGAGTCACCTAGTGCAG”, the binding signal was 8350 fluorescence intensity (a.u.).

For the sequence “CACCTGACAAGCCAAATGTTGCACGCTTTTGAAATTATCTCGGAGTCACCTAGTGCAG”, the binding signal was 10600 fluorescence intensity (a.u.).

As for “TGGCGTATCATACCATGCCCTCGTCGCAACTCGTACAATACGGAGTCACCTAGTGCAG”, the binding signal was 10900 fluorescence intensity (a.u.).

Turning to “CTCGTGGTCAAATCTGAATATCCGATACTTCCGTTTCAAACGGAGTCACCTAGTGCAG”, the binding signal was 8300 fluorescence intensity (a.u.).

“ATGCAGTGTGCCTACGACCACCAAGGTCCACACACCTGCTCGGAGTCACCTAGTGCAG”: the binding signal is 8200 fluorescence intensity (a.u.).

With “GCGATTTTTTTTCTTCCTCACCAGAACAAATCTTGTAATACGGAGTCACCTAGTGCAG”, the binding signal was 8100 fluorescence intensity (a.u.).

As to “GTATGTGCACCTTGTTGTTTGTTTGGATTTGATTGGAGATCGGAGTCACCTAGTGCAG”, the binding signal is 8790 fluorescence intensity (a.u.).

With “CCATCACTAGTTCCCTACCGTACTACTACTCCTACCGTACCGGAGTCACCTAGTGCAG”, the binding signal is 12700 fluorescence intensity (a.u.).

With “AAACATCACCGCACCACACCGCGCACAACCCACCACATATCGGAGTCACCTAGTGCAG”, the binding signal was 12700 fluorescence intensity (a.u.).

With “AAGTACCCACCCACCACCACCACCACCACGCAAGAACCGCCGGAGTCACCTAGTGCAG”, the binding signal is 9730 fluorescence intensity (a.u.).

Consider “CTCTTTCTAGCTCATTGCTTTTGCTAGACTCGATATTTTACGGAGTCACCTAGTGCAG”, for which the binding signal is 8420 fluorescence intensity (a.u.).

“TCTCATGTGGATTTGGGTGTATTACTCATCTTCACATCTACGGAGTCACCTAGTGCAG”: the binding signal is 8130 fluorescence intensity (a.u.).

Turning to “AGATGCCTTTTTGTGGGTGGGAAATCATTTCCATTTCCAACGGAGTCACCTAGTGCAG”, the binding signal was 8690 fluorescence intensity (a.u.).

For “AACCCACACGCCTCGCTGCCTCGATTGATTGATTGATTCCCGGAGTCACCTAGTGCAG”, the binding signal is 11800 fluorescence intensity (a.u.).

“TATATATATATCTGTCCGTCCGTCCTACTTGTCAAATCCACGGAGTCACCTAGTGCAG”: the binding signal was 8850 fluorescence intensity (a.u.).

As to “GACCTGGGCTGGGGCAATGCCTGGTTTTCTTTGGGCTAATCGGAGTCACCTAGTGCAG”, the binding signal was 9530 fluorescence intensity (a.u.).

For the sequence “TGCTTCAGTATATTCTCTGCTTCACCTGTCTCTCGCCTGCCGGAGTCACCTAGTGCAG”, the binding signal was 10800 fluorescence intensity (a.u.).

As to “ATGACAACCAATGCCATATATTCCATACCTCAGTCGCATGCGGAGTCACCTAGTGCAG”, the binding signal was 8340 fluorescence intensity (a.u.).

Regarding “AAACCGCGCTGCCCTGCCCTTTTCCGCCATAGCTAATCTACGGAGTCACCTAGTGCAG”, the binding signal was 10300 fluorescence intensity (a.u.).

Turning to “CCTTCGCGTCCGTCGTCCTGCTTGCTGCGGCCTGCAGCTGCGGAGTCACCTAGTGCAG”, the binding signal is 9150 fluorescence intensity (a.u.).

As for “TTCAGGATGAGGGAAGTGCAGAGATTGCACCTTTTTCGTTCGGAGTCACCTAGTGCAG”, the binding signal was 8430 fluorescence intensity (a.u.).

Take “TTCAACCTCTCCACCGGCGCCCTCGCCCGCGCCAAGCTCCCGGAGTCACCTAGTGCAG”: the binding signal was 8190 fluorescence intensity (a.u.).

Turning to “ACCCAACATTTGTTTTTTTGTTTCCACTCTTCGCAAGCCACGGAGTCACCTAGTGCAG”, the binding signal was 8800 fluorescence intensity (a.u.).

“CTTCACAGTCGCTGCCTACCTTGCCGTCCGTGATCCCGGTCGGAGTCACCTAGTGCAG”: the binding signal is 8820 fluorescence intensity (a.u.).

With “ATTCGTTATACTAGGTGACATCTCATCTAATATTTGTTTACGGAGTCACCTAGTGCAG”, the binding signal is 8120 fluorescence intensity (a.u.).

On to “TATAGGTCCCACGCTATCTCAGTCGCCACATCAGCTAAAACGGAGTCACCTAGTGCAG”, for which the binding signal is 8690 fluorescence intensity (a.u.).

For “CAGGGACAGTTTGGTAAATTCGCGTTGGATTGCTTCTTATCGGAGTCACCTAGTGCAG”, the binding signal is 8650 fluorescence intensity (a.u.).

“CACGCCTCATTTGGCATCGCATCTGATTGCCCTGTAGATTCGGAGTCACCTAGTGCAG”: the binding signal was 11900 fluorescence intensity (a.u.).

Turning to “CGACGCGTGCTGCTTTTGATTTTTCTTTCTTTTTCTTTTTCGGAGTCACCTAGTGCAG”, the binding signal is 10300 fluorescence intensity (a.u.).

In the case of “TGCTTAATTAATTCGTACGCTAATCCATTCTCTTTTTTTTCGGAGTCACCTAGTGCAG”, the binding signal was 10100 fluorescence intensity (a.u.).

As for “TTGCGGTTGGGGACGATTTTGTAACTCGATGACAAGTTGACGGAGTCACCTAGTGCAG”, the binding signal is 13000 fluorescence intensity (a.u.).

Consider “ATACATTTTCGTTATTAAATCAGTTGTTTATTCTTTATGGCGGAGTCACCTAGTGCAG”, for which the binding signal is 8290 fluorescence intensity (a.u.).
